{"source": "PubChem BioAssay AID1259254 (NCATS, 2017)", "aim": "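Finding genes that stop cells copying their DNA twice in one cycle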 (primary screen)", "cells": "human HCT116 colorectal cancer cells", "knock-down reagent": "single siRNA against human genes", "time to read-out": "3 days", "measurement": "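Nuclei stained with Hoechst and imaged; cell-cycle phase assigned by DNA content; G2 share scaled per plate, non-targeting siRNA 0%, GMNN siRNA 100%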", "direction": "G2 robust z-score: higher = more G2 cells, more excess DNA replication", "rule for the call": "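An siRNA counts as active if its G2 robust z-score lies at least 5 MADs above the screen median; here such calls match roughly 38% of GMNN control or more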", "note": "Here is a random part of about 59,000 reagents. Of all reagents, about 1,550 (2.6%) got an active call. 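G2 share is only a proxy for re-replication; each gene was hit by three separate siRNAs, and active genes were retested.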 The numbers tell different reagents against one gene apart. Further read-outs or replicates are left out here. The record does not give: the amount of reagent."}
{"Target gene": "MTUS2-AS1", "siRNA no.": 1, "G2 robust z-score": -1.03, "call": "inactive"}
{"Target gene": "MTUS2-AS1", "siRNA no.": 2, "G2 robust z-score": 2.54, "call": "inactive"}
{"Target gene": "MTUS2-AS1", "siRNA no.": 3, "G2 robust z-score": 0.968, "call": "inactive"}
{"Target gene": "ACTG2", "siRNA no.": 1, "G2 robust z-score": 0.285, "call": "inactive"}
{"Target gene": "ACTG2", "siRNA no.": 2, "G2 robust z-score": -0.368, "call": "inactive"}
{"Target gene": "ACTG2", "siRNA no.": 3, "G2 robust z-score": -0.527, "call": "inactive"}
{"Target gene": "ITLN1", "siRNA no.": 1, "G2 robust z-score": -0.535, "call": "inactive"}
{"Target gene": "ITLN1", "siRNA no.": 2, "G2 robust z-score": 0.632, "call": "inactive"}
{"Target gene": "ITLN1", "siRNA no.": 3, "G2 robust z-score": 4.43, "call": "inactive"}
{"Target gene": "XRN2", "siRNA no.": 1, "G2 robust z-score": -0.529, "call": "inactive"}
{"Target gene": "XRN2", "siRNA no.": 2, "G2 robust z-score": -1.54, "call": "inactive"}
{"Target gene": "XRN2", "siRNA no.": 3, "G2 robust z-score": -0.00983, "call": "inactive"}
{"Target gene": "PPARA", "siRNA no.": 1, "G2 robust z-score": 0.791, "call": "inactive"}
{"Target gene": "PPARA", "siRNA no.": 2, "G2 robust z-score": -0.491, "call": "inactive"}
{"Target gene": "PPARA", "siRNA no.": 3, "G2 robust z-score": -0.205, "call": "inactive"}

4 neighbouring entries already listed, for reference:
{"Target gene": "ITLN1", "siRNA no.": 2, "G2 robust z-score": 0.632, "call": "inactive"}
{"Target gene": "ITLN1", "siRNA no.": 3, "G2 robust z-score": 4.43, "call": "inactive"}
{"Target gene": "XRN2", "siRNA no.": 1, "G2 robust z-score": -0.529, "call": "inactive"}
{"Target gene": "XRN2", "siRNA no.": 2, "G2 robust z-score": -1.54, "call": "inactive"}

More results follow:
{"Target gene": "ZNF174", "siRNA no.": 1, "G2 robust z-score": -0.89, "call": "inactive"}
{"Target gene": "ZNF174", "siRNA no.": 2, "G2 robust z-score": -0.198, "call": "inactive"}
{"Target gene": "ZNF174", "siRNA no.": 3, "G2 robust z-score": 0.171, "call": "inactive"}
{"Target gene": "KCNQ1", "siRNA no.": 1, "G2 robust z-score": 0.821, "call": "inactive"}
{"Target gene": "KCNQ1", "siRNA no.": 2, "G2 robust z-score": -0.621, "call": "inactive"}
{"Target gene": "KCNQ1", "siRNA no.": 3, "G2 robust z-score": -0.237, "call": "inactive"}
{"Target gene": "HES1", "siRNA no.": 1, "G2 robust z-score": -0.595, "call": "inactive"}
{"Target gene": "HES1", "siRNA no.": 2, "G2 robust z-score": 3.85, "call": "inactive"}
{"Target gene": "HES1", "siRNA no.": 3, "G2 robust z-score": 2.86, "call": "inactive"}
